1 molecule from doi:10.1101/2024.03.27.586763 can be followed below.

The chains behind the UniProt entries cited, without tags or fusion partners.
UniProt Q13490: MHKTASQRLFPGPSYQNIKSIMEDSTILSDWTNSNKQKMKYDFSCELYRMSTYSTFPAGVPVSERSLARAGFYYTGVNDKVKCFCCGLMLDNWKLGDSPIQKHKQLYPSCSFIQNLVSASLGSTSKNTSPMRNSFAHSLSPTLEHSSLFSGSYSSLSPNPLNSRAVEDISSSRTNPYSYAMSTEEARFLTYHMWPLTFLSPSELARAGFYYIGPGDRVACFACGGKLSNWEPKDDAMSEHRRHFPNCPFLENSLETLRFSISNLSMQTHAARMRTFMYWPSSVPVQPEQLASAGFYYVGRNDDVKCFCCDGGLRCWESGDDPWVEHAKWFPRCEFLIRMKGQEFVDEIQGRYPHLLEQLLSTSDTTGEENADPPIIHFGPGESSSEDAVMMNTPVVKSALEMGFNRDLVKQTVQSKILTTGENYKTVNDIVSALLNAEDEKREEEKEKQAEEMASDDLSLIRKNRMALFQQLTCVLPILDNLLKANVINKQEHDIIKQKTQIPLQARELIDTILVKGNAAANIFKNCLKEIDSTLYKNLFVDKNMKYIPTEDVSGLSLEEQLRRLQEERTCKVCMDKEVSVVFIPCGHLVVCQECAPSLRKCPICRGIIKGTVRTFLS

The target of experiment [1] is T1, Flag-TRAF2 (UniProt Q12933).
T1 sequence: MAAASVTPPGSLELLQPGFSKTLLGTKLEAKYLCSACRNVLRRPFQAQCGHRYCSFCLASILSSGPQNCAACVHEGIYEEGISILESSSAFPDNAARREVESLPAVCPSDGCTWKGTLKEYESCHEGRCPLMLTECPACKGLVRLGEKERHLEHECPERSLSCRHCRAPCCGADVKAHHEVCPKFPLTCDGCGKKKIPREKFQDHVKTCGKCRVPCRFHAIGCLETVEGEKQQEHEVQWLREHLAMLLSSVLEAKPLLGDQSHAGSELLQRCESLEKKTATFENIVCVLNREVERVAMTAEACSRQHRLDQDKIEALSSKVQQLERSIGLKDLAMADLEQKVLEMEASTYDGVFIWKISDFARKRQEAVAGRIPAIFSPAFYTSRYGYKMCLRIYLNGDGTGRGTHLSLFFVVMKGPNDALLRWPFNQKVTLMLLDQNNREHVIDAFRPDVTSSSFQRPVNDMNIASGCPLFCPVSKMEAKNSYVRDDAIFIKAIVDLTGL
Kind of experiment: co-IP.

In experiment [2] the target is HA cIAP1 (pEBB-HA cIAP1) (UniProt Q13490). Kind of experiment: co-IP.

These are yes or no findings as the source states them, for the method shown. Binding seen in cells or lysates may run through a third protein. Some entries that bind do so weakly or less than the wild type. Tags and fused reporters may be left off the sequences shown.

B1: ZFAND6-Flag-Myc (protein, UniProt Q6FIF0 1-208)
chain: MAQETNHSQVPMLCSTGCGFYGNPRTNGMCSVCYKEHLQRQNSSNGRISPPATSVSSLSESLPVQCTDGSVPEAQSALDSTSSSMQPSPVSNQSLLSESVASSQLDSTSVDKAVPETEDVQASVSDTAQQPSEEQSKSLEKPKQKKNRCFMCRKKVGLTGFECRCGNVYCGVHRYSDVHNCSYNYKADAAEKIRKENPVVVGEKIQKI
As for B1, the binding result in experiment [1] and in experiment [2] was “binds” in each case.
